Data as given in patent EP0338532A2, “N-alkylamino derivates of aromatic, tricyclic compounds in the treatment of drug-resistant protozoal infections” (priority 1988, dated 1989).
At least one read-out could not be matched to a standard name with certainty.

System: P. falciparum (FCR3)
Test: [3H]-hypoxanthine incorporation, parasite growth inhibition (chloroquine-resistant strain FCR3)
Assay type: cell-based, Plasmodium falciparum
Conditions: Figure 2, combination with chloroquine
Protocol: P. falciparum (clone D6, chloroquine-sensitive; strain FCR3, chloroquine-resistant; and clone W2, multidrug-resistant) was grown in vitro by the method of Trager and Jensen, (1976) Science 193, 673-675. • Figure 1 illustrates the effect of desipramine on the inhibition of parasite growth. […] Isobologram analysis was carried out according to the method of Martin, et al., (1987) Science 235, 899-901 and Berenbaum, (1978) Journal of Infectious Diseases 137, 122-130. […] The X-axis is the IC₅₀ (concentration of drug which inhibits hypoxanthine incorporation by 50%) of chloroquine in the absence or presence of desipramine while the Y-axis is the IC₅₀ for desipramine in the absence or presence of chloroquine. […] Dose-response curves and IC₅₀'s for chloroquine were determined either in the absence of desipramine or in the presence of a fixed concentration of desipramine ranging from 50 ng desipramine/ml up to 500 ng desipramine/ml. […] Clinically achievable plasma concentrations of desipramine in depressed patients are in the range of 50 - 200 ng/ml. Desipramine (500 ng/ml) lowered the IC₅₀ and IC₉₀ for chloroquine by 10-fold. An IC₅₀ for a chloroquine-sensitive P. falciparum strain would be approximately 5 ng/ml. […]

CNCCCN1c2ccccc2CCc2ccccc21 [desipramine, Desipramine] was tested, and the “synergism of desipramine and chloroquine (isobologram analysis of IC50)” value was “highly synergistic”.
